Reference: US20170226179A1
Results are given in words; binding and its absence hold for the method and conditions named. For some assays here: In cells and extracts the contact can be indirect. Some binding calls cover weakened binding; strength is not graded here. Tags and fused reporters may be left off the sequences shown.

Legend:
[1] = target: human ferritin fused with mCherry at the C-terminal (FTH1-mCherry) (human) (UniProt P02794); assay: co-immunoprecipitation from transfected HEK-293 cells (FIG. 9e)
[2] = target: endogenous ferritin (of HEK-293 cells) (UniProt P02794); assay: immunoprecipitation of TRPV1.D5 from HEK-293 cells (data not shown)

binding [1]: binds
binding [2]: binds
B1: Flag-TRPV1.D5 (mouse TRPV1 linked to human domain 5 of kininogen 1, labeled with FLAG) (protein, not shown: small tags and cut ends)
chain: MEKWASLDSDESEPPAQENSCPDPPDRDPNSKPPPAKPHIFATRSRTRLFGKGDSEEASPMDCPYEEGGLASCPIITVSSVVTLQRSVDGPTCLRQTSQDSVSTGVETPPRLYDRRSIFDAVAQSNCQELESLLSFLQKSKKRLTDSEFKDPETGKTCLLKAMLNLHNGQNDTIALLLDIARKTDSLKQFVNASYTDSYYKGQTALHIAIERRNMALVTLLVENGADVQAAANGDFFKKTKGRPGFYFGELPLSLAACTNQLAIVKFLLQNSWQPADISARDSVGNTVLHALVEVADNTADNTKFVTNMYNEILILGAKLHPTLKLEELTNKKGLTPLALAASSGKIGVLAYILQREIHEPECRHLSRKFTEWAYGPVHSSLYDLSCIDTCEKNSVLEVIAYSSSETPNRHDMLLVEPLNRLLQDKWDRFVKRIFYFNFFVYCLYMIIFTTAAYYRPVEGLPPYKLNNTVGDYFRVTGEILSVSGGVYFFFRGIQYFLQRRPSLKSLFVDSYSEILFFVQSLFMLVSVVLYFSHRKEYVASMVFSLAMGWTNMLYYTRGFQQMGIYAVMIEKMILRDLCRFMFVYLVFLFGFSTAVVTLIEDGKNNSLPVESPPHKCRGSACRPGNSYNSLYSTCLELFKFTIGMGDLEFTENYDFKAVFIILLLAYVILTYILLLNMLIALMGETVNKIAQESKNIWKLQRAITILDTEKSFLKCMRKAFRSGKLLQVGFTPDGKDDFRWCFRVDEVNWTTWNTNVGIINEDPGNCEGVKRTLSFSLRSGRVSGRNWKNFALVPLLRDASTRDRHSTQPEEVQLKHYTGSLKPEDAEVFKDSMAPGEKCSRVSPPHTSMAPAQDEERDSGKEQGHTRRHDWGHEKQRKHNLGHGHKHERDQGHGHQRGHGLGHGHEQQHGLGHGHKFKLDDDLEHQGGHVLDHGHKHKHGHGHGKHKNKGKKNGKHNGWKTEHLASL
